Consider four molecules from article doi:10.1101/2022.11.03.515106 (bioRxiv, 2022).

These are yes or no findings as the source states them, for the method shown. In cells and extracts the contact can be indirect. Some binding calls cover weakened binding; strength is not graded here. For part of these data: Sequences can lack the tags named with a protein.

Assay in all cases: co-IP
The target of assay [1] is T1, endogenous DBR1 (human (endogenous in 293T and HeLa-S)) (UniProt Q9UK59).
T1 sequence: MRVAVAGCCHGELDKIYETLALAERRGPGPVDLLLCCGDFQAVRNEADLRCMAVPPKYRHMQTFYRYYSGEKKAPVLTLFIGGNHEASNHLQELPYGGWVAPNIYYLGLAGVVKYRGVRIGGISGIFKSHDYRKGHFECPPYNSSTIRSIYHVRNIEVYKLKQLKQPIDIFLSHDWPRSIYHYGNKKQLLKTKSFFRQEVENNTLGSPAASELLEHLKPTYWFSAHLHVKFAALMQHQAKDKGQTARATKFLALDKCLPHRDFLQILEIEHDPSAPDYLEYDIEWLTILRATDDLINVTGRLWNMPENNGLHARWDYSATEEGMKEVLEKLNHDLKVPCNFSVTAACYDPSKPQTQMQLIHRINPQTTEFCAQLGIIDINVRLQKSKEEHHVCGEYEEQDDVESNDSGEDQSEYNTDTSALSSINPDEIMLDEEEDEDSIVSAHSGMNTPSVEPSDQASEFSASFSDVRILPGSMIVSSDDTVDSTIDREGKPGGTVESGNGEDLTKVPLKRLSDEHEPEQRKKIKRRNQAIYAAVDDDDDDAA

Assay [2] deals with T2, Flag-TTDN1 lacking the first N-terminal 20 amino acids (human) (UniProt Q8TAP9).
T2 sequence: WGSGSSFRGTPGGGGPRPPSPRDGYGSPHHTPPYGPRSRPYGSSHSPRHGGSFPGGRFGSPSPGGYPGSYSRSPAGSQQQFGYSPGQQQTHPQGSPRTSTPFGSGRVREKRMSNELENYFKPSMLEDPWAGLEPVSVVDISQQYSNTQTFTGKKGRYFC

Assay [3] deals with T3, Flag-TTDN1 lacking 60 N-terminal amino acids (human) (UniProt Q8TAP9).
T3 sequence: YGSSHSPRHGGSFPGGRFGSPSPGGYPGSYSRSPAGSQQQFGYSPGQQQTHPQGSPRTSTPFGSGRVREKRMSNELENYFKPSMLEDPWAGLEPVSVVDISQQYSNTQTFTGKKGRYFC

The target in a further assay is T4, HA-TTDN1 (human) (UniProt Q8TAP9).
T4 sequence: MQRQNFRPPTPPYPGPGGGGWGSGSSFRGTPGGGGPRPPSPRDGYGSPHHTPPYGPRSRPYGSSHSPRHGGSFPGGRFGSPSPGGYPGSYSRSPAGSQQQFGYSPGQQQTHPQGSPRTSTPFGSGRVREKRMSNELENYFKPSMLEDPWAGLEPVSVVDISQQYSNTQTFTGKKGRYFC

In another assay the target is T5, Flag-TTDN1 (human) (UniProt Q8TAP9).
T5 sequence: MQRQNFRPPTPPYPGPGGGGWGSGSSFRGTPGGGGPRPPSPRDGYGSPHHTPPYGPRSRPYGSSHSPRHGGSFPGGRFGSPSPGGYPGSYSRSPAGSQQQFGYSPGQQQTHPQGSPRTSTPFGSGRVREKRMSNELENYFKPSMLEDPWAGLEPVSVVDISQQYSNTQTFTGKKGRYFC

A further assay addresses T6, Flag-TTDN1 M144V (human) (UniProt Q8TAP9).
T6 sequence: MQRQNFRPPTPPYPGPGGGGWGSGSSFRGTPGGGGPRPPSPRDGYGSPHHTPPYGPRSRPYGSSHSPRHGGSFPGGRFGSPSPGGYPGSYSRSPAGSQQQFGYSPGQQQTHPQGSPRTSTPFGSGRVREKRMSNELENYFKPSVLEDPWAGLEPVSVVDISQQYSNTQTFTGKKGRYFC

B1: endogenous TTDN1 (protein, UniProt Q8TAP9 1-179)
chain: MQRQNFRPPTPPYPGPGGGGWGSGSSFRGTPGGGGPRPPSPRDGYGSPHHTPPYGPRSRPYGSSHSPRHGGSFPGGRFGSPSPGGYPGSYSRSPAGSQQQFGYSPGQQQTHPQGSPRTSTPFGSGRVREKRMSNELENYFKPSMLEDPWAGLEPVSVVDISQQYSNTQTFTGKKGRYFC
As to B1, in assay [1], the binding entry is “binds”.

B2: Aquarius (AQR) (protein, UniProt O60306 1-1485)
chain: MAAPAQPKKIVAPTVSQINAEFVTQLACKYWAPHIKKKSPFDIKVIEDIYEKEIVKSRFAIRKIMLLEFSQYLENYLWMNYSPEVSSKAYLMSICCMVNEKFRENVPAWEIFKKKPDHFPFFFKHILKAALAETDGEFSLHEQTVLLLFLDHCFNSLEVDLIRSQVQQLISLPMWMGLQLARLELELKKTPKLRKFWNLIKKNDEKMDPEAREQAYQERRFLSQLIQKFISVLKSVPLSEPVTMDKVHYCERFIELMIDLEALLPTRRWFNTILDDSHLLVHCYLSNLVRREEDGHLFSQLLDMLKFYTGFEINDQTGNALTENEMTTIHYDRITSLQRAAFAHFPELYDFALSNVAEVDTRESLVKFFGPLSSNTLHQVASYLCLLPTLPKNEDTTFDKEFLLELLVSRHERRISQIQQLNQMPLYPTEKIIWDENIVPTEYYSGEGCLALPKLNLQFLTLHDYLLRNFNLFRLESTYEIRQDIEDSVSRMKPWQSEYGGVVFGGWARMAQPIVAFTVVEVAKPNIGENWPTRVRADVTINLNVRDHIKDEWEGLRKHDVCFLITVRPTKPYGTKFDRRRPFIEQVGLVYVRGCEIQGMLDDKGRVIEDGPEPRPNLRGESRTFRVFLDPNQYQQDMTNTIQNGAEDVYETFNIIMRRKPKENNFKAVLETIRNLMNTDCVVPDWLHDIILGYGDPSSAHYSKMPNQIATLDFNDTFLSIEHLKASFPGHNVKVTVEDPALQIPPFRITFPVRSGKGKKRKDADVEDEDTEEAKTLIVEPHVIPNRGPYPYNQPKRNTIQFTHTQIEAIRAGMQPGLTMVVGPPGTGKTDVAVQIISNIYHNFPEQRTLIVTHSNQALNQLFEKIMALDIDERHLLRLGHGEEELETEKDFSRYGRVNYVLARRIELLEEVKRLQKSLGVPGDASYTCETAGYFFLYQVMSRWEEYISKVKNKGSTLPDVTEVSTFFPFHEYFANAPQPIFKGRSYEEDMEIAEGCFRHIKKIFTQLEEFRASELLRSGLDRSKYLLVKEAKIIAMTCTHAALKRHDLVKLGFKYDNILMEEAAQILEIETFIPLLLQNPQDGFSRLKRWIMIGDHHQLPPVIKNMAFQKYSNMEQSLFTRFVRVGVPTVDLDAQGRARASLCNLYNWRYKNLGNLPHVQLLPEFSTANAGLLYDFQLINVEDFQGVGESEPNPYFYQNLGEAEYVVALFMYMCLLGYPADKISILTTYNGQKHLIRDIINRRCGNNPLIGRPNKVTTVDRFQGQQNDYILLSLVRTRAVGHLRDVRRLVVAMSRARLGLYIFARVSLFQNCFELTPAFSQLTARPLHLHIIPTEPFPTTRKNGERPSHEVQIIKNMPQMANFVYNMYMHLIQTTHHYHQTLLQLPPAMVEEGEEVQNQETELETEEEAMTVQADIIPSPTDTSCRQETPAFQTDTTPSETGATSTPEAIPALSETTPTVVGAVSAPAEANTPQDATSAPEETK
As to B2, the binding entry in assay [2] was “binds”; in assay [3], “no binding”.

B3: endogenous DBR1 (enzyme, UniProt Q9UK59 1-544)
chain: MRVAVAGCCHGELDKIYETLALAERRGPGPVDLLLCCGDFQAVRNEADLRCMAVPPKYRHMQTFYRYYSGEKKAPVLTLFIGGNHEASNHLQELPYGGWVAPNIYYLGLAGVVKYRGVRIGGISGIFKSHDYRKGHFECPPYNSSTIRSIYHVRNIEVYKLKQLKQPIDIFLSHDWPRSIYHYGNKKQLLKTKSFFRQEVENNTLGSPAASELLEHLKPTYWFSAHLHVKFAALMQHQAKDKGQTARATKFLALDKCLPHRDFLQILEIEHDPSAPDYLEYDIEWLTILRATDDLINVTGRLWNMPENNGLHARWDYSATEEGMKEVLEKLNHDLKVPCNFSVTAACYDPSKPQTQMQLIHRINPQTTEFCAQLGIIDINVRLQKSKEEHHVCGEYEEQDDVESNDSGEDQSEYNTDTSALSSINPDEIMLDEEEDEDSIVSAHSGMNTPSVEPSDQASEFSASFSDVRILPGSMIVSSDDTVDSTIDREGKPGGTVESGNGEDLTKVPLKRLSDEHEPEQRKKIKRRNQAIYAAVDDDDDDAA
Regarding B3, the binding entry (in assay [3]; with HA-TTDN1 (human); with Flag-TTDN1 (human); in the assay with Flag-TTDN1 M144V (human)) was “binds” throughout.

B4: XAB2 (protein, UniProt Q9HCS7 1-855)
chain: MVVMARLSRPERPDLVFEEEDLPYEEEIMRNQFSVKCWLRYIEFKQGAPKPRLNQLYERALKLLPCSYKLWYRYLKARRAQVKHRCVTDPAYEDVNNCHERAFVFMHKMPRLWLDYCQFLMDQGRVTHTRRTFDRALRALPITQHSRIWPLYLRFLRSHPLPETAVRGYRRFLKLSPESAEEYIEYLKSSDRLDEAAQRLATVVNDERFVSKAGKSNYQLWHELCDLISQNPDKVQSLNVDAIIRGGLTRFTDQLGKLWCSLADYYIRSGHFEKARDVYEEAIRTVMTVRDFTQVFDSYAQFEESMIAAKMETASELGREEEDDVDLELRLARFEQLISRRPLLLNSVLLRQNPHHVHEWHKRVALHQGRPREIINTYTEAVQTVDPFKATGKPHTLWVAFAKFYEDNGQLDDARVILEKATKVNFKQVDDLASVWCQCGELELRHENYDEALRLLRKATALPARRAEYFDGSEPVQNRVYKSLKVWSMLADLEESLGTFQSTKAVYDRILDLRIATPQIVINYAMFLEEHKYFEESFKAYERGISLFKWPNVSDIWSTYLTKFIARYGGRKLERARDLFEQALDGCPPKYAKTLYLLYAQLEEEWGLARHAMAVYERATRAVEPAQQYDMFNIYIKRAAEIYGVTHTRGIYQKAIEVLSDEHAREMCLRFADMECKLGEIDRARAIYSFCSQICDPRTTGAFWQTWKDFEVRHGNEDTIKEMLRIRRSVQATYNTQVNFMASQMLKVSGSATGTVSDLAPGQSGMDDMKLLEQRAEQLAAEAERDQPLRAQSKILFVRSDASREELAELAQQVNPEEIQLGEDEDEDEMDLEPNEVRLEQQSVPAAVFGSLKED
With B4, the binding entry in assay [2] is “binds”; in assay [3], “no binding”.
